No constants are given. Whether binding was seen depends on the method and setting. Some binding calls cover weakened binding; strength is not graded here.
Target: human cluster designation 34 (CD34) antigen on the surface of TF-1 cells (human) (UniProt P28906)
Experiment: dose response and competition cell capture assays, TF-1 cells

Amino acid sequences for entries named in this document (tags omitted). Residues count along the entry.
UniProt P28906, residues 32-385: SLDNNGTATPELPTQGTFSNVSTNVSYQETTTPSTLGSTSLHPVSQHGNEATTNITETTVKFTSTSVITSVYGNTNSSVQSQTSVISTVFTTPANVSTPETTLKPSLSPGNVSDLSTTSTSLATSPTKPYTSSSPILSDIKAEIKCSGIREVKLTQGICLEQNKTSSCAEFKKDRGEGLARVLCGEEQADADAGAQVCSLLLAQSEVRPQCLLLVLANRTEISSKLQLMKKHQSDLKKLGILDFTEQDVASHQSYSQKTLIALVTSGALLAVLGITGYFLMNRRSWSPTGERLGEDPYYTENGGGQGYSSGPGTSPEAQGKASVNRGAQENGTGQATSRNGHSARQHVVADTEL

B1: recombinant anti-CD34 antibody produced by stable CHO-DXB11 cell lines (evaluation cell banks ECB1 to ECB9) (antibody, mouse IgG1, V domains shown)
VH: EVQLQQSGPELVKPGASVKISCKASGYSFIGYFMNWVMQSHGRSLEWIGRINPYNGYTFYNQKFKGKATLTVDKSSSTAHMELRSLASEDSAVYYCARHFRYDGVFYYAMDYWGQGTSVTVSS
VL: QLVLTQSSSASFSLGASAKLTCTLSSQHSTFTIEWYQQQPLKPPKYVMDLKKDGSHSTGDGVPDRFSGSSSGADRYLSISNIQPEDEATYICGVGDTIKEQFVYVFGGGTKVTVLG
- binding: binds

Reference: patent US20130143238A1 (BAXTER HEALTHCARE S A, published 2013)
